According to PMC4104027:
No constants are given. Whether binding was seen depends on the method and setting. In cells and extracts the contact can be indirect. A yes stands for co-enrichment or nearness to the bait. Other partners may have been found.

Sequences of proteins named here, by UniProt entry; tags and fusion partners are left off.
UniProt P46379: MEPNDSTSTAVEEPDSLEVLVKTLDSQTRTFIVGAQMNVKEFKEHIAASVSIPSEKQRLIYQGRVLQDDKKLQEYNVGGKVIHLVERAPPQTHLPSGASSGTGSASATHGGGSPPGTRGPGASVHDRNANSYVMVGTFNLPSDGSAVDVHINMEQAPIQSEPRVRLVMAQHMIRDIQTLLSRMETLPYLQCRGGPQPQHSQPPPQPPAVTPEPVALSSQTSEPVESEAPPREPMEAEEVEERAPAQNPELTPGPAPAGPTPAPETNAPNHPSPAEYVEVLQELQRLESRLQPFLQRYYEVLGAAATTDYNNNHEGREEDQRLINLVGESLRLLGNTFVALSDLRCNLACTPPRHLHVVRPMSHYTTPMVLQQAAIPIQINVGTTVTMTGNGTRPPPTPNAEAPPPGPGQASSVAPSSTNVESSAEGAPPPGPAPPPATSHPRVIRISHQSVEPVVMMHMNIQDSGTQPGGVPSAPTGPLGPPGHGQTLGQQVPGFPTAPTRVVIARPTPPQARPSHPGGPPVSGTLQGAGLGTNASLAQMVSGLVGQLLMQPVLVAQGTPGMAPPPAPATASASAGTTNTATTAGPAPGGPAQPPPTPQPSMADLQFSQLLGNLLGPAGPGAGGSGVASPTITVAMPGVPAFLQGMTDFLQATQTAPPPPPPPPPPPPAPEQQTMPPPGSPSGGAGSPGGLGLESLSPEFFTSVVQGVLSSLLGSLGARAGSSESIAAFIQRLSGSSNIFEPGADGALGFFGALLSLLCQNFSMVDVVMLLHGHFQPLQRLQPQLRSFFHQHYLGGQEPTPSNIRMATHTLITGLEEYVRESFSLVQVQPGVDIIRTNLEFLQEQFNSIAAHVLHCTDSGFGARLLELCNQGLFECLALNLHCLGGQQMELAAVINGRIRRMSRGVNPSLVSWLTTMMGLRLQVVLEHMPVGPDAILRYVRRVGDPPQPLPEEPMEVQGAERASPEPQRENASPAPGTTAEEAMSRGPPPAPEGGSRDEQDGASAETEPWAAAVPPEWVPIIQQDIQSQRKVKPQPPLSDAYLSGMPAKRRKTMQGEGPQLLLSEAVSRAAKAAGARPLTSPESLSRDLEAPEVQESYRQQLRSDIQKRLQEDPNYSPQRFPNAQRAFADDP
UniProt Q9UNE7: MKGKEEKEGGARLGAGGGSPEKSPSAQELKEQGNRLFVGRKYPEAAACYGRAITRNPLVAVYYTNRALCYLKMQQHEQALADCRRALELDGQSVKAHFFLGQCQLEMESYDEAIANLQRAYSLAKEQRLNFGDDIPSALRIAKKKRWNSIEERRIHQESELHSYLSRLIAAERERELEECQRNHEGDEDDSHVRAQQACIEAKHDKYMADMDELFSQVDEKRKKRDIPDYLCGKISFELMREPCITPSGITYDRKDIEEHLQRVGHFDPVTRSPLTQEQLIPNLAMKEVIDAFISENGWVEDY
UniProt Q7Z6Z7: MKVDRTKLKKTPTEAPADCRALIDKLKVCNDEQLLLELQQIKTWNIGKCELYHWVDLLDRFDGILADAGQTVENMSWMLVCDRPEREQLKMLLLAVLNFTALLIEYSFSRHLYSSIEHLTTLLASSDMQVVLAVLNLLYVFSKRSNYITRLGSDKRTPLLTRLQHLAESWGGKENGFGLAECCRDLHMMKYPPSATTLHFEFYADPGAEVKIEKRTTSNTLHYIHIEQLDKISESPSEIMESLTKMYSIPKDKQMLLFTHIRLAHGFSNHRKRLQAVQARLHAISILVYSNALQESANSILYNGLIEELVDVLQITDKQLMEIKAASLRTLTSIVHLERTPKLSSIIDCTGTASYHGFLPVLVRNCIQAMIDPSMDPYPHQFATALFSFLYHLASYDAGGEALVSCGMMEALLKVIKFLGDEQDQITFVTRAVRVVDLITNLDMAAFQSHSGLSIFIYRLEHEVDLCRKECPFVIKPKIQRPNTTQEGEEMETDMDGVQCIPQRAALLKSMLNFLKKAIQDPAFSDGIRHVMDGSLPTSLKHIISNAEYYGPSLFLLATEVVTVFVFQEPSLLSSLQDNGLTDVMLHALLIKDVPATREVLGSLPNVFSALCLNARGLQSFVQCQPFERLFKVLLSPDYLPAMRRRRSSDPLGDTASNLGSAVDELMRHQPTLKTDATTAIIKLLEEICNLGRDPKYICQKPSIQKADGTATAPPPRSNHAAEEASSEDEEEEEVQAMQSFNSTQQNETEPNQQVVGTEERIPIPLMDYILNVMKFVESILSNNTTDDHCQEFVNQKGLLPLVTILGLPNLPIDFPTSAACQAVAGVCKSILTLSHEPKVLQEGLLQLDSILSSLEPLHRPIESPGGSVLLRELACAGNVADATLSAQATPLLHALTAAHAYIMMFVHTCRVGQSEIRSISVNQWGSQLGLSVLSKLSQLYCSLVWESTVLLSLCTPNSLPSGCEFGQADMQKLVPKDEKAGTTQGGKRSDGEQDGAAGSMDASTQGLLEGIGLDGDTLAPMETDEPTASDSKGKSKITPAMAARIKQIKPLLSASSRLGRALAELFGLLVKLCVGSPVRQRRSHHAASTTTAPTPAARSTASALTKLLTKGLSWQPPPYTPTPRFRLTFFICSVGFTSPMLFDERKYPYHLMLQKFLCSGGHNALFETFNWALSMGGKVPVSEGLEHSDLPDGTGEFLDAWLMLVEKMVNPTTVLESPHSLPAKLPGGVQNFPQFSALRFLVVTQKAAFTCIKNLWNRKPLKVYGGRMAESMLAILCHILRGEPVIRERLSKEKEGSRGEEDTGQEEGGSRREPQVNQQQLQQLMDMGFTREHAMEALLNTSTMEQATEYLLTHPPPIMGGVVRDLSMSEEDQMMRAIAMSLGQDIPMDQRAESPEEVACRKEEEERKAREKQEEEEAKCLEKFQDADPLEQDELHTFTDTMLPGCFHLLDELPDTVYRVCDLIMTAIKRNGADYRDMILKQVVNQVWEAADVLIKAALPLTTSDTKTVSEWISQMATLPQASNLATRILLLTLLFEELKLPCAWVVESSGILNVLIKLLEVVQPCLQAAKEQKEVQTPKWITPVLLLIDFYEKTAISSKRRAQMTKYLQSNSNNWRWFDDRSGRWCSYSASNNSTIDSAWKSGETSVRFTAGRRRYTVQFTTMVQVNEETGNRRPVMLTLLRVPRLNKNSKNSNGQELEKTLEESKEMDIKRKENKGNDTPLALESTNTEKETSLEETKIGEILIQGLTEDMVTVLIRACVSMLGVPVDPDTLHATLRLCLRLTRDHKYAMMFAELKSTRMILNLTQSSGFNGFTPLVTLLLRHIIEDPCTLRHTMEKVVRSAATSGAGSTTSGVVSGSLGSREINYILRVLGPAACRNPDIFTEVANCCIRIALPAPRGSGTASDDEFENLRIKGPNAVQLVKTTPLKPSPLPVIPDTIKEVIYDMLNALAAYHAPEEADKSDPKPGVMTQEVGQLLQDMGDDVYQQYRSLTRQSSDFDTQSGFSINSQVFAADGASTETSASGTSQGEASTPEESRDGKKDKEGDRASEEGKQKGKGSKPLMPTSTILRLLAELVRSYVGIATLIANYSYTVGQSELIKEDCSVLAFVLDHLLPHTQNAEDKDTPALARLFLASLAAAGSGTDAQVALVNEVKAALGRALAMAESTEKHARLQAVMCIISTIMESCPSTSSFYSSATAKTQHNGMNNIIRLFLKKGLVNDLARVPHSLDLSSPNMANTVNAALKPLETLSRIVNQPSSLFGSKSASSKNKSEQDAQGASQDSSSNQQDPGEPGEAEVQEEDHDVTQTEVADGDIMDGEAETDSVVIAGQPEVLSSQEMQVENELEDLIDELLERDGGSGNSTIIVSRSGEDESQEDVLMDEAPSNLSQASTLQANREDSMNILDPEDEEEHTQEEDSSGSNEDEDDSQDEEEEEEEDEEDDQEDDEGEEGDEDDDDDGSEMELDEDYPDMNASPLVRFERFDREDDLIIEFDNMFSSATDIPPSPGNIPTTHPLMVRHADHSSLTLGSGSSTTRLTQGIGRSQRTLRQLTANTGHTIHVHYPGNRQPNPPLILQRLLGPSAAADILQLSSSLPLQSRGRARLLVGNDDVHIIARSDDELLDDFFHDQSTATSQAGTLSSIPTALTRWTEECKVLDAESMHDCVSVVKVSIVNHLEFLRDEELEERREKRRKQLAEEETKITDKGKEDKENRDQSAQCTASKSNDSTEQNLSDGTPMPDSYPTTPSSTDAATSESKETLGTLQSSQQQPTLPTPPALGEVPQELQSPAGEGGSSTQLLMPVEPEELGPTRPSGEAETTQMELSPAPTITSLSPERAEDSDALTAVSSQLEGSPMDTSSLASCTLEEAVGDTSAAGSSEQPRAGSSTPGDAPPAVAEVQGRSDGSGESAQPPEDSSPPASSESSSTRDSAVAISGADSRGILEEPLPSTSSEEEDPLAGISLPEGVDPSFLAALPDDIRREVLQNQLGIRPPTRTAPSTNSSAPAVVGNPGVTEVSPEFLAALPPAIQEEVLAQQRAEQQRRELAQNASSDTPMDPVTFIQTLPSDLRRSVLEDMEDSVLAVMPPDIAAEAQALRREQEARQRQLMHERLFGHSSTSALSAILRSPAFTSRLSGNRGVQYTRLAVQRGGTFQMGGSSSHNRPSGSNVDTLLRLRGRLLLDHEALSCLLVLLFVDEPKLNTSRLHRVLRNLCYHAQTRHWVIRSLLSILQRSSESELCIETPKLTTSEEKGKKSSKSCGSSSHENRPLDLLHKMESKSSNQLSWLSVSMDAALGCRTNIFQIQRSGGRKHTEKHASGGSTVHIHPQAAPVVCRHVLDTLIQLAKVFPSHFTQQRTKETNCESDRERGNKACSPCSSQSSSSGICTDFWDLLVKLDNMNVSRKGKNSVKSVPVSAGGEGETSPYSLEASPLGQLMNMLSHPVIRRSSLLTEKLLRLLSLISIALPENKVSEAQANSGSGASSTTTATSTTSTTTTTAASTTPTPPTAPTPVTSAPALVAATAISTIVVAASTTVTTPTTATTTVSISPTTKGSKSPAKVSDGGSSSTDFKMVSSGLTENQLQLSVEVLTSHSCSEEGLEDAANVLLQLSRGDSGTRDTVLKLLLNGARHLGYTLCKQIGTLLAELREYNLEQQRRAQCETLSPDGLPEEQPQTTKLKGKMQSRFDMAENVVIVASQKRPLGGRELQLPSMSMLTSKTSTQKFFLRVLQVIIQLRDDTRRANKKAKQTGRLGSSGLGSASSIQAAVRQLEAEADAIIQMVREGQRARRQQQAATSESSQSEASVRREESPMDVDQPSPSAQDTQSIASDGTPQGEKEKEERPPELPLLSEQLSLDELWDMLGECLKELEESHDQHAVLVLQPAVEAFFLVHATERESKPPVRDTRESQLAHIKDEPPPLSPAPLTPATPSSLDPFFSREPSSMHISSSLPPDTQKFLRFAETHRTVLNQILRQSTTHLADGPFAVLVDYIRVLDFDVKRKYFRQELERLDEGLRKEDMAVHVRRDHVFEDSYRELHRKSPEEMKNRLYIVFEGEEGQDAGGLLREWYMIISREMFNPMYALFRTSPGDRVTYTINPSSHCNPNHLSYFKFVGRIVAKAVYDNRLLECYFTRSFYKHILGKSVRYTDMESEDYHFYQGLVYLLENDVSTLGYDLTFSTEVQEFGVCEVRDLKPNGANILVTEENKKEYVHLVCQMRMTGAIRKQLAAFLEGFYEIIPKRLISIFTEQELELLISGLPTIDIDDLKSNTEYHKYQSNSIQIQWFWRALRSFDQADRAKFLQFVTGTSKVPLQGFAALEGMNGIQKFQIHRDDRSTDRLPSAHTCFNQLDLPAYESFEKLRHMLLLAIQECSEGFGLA

B1: RNF123 (enzyme, UniProt Q5XPI4 1-1314)
chain: MASKGAGMSFSRKSYRLTSDAEKSRVTGIVQEKLLNDYLNRIFSSSEHAPPAATSRKPLNFQNLPEHLDQLLQVDNEEEESQGQVEGRLGPSTVVLDHTGGFEGLLLVDDDLLGVIGHSNFGTIRSTTCVYKGKWLYEVLISSQGLMQIGWCTISCRFNQEEGVGDTHNSYAYDGNRVRKWNVTTTNYGKAWAAGDIVSCLIDLDDGTLSFCLNGVSLGTAFENLSRGLGMAYFPAISLSFKESVAFNFGSRPLRYPVAGYRPLQDPPSADLVRAQRLLGCFRAVLSVELDPVEGRLLDKESSKWRLRGQPTVLLTLAHIFHHFAPLLRKVYLVEAVLMSFLLGIVEKGTPTQAQSVVHQVLDLLWLFMEDYEVQDCLKQLMMSLLRLYRFSPIVPDLGLQIHYLRLTIAILRHEKSRKFLLSNVLFDVLRSVVFFYIKSPLRVEEAGLQELIPTTWWPHCSSREGKESTEMKEETAEERLRRRAYERGCQRLRKRIEVVEELQVQILKLLLDNKDDNGGEASRYIFLTKFRKFLQENASGRGNMPMLCPPEYMVCFLHRLISALRYYWDEYKASNPHASFSEEAYIPPQVFYNGKVDYFDLQRLGGLLSHLRKTLKDDLASKANIVIDPLELQSTAMDDLDEDEEPAPAMAQRPMQALAVGGPLPLPRPGWLSSPTLGRANRFLSTAAVSLMTPRRPLSTSEKVKVRTLSVEQRTREDIEGSHWNEGLLLGRPPEEPEQPLTENSLLEVLDGAVMMYNLSVHQQLGKMVGVSDDVNEYAMALRDTEDKLRRCPKRRKDILAELTKSQKVFSEKLDHLSRRLAWVHATVYSQEKMLDIYWLLRVCLRTIEHGDRTGSLFAFMPEFYLSVAINSYSALKNYFGPVHSMEELPGYEETLTRLAAILAKHFADARIVGTDIRDSLMQALASYVCYPHSLRAVERIPEEQRIAMVRNLLAPYEQRPWAQTNWILVRLWRGCGFGYRYTRLPHLLKTKLEDANLPSLQKPCPSTLLQQHMADLLQQGPDVAPSFLNSVLNQLNWAFSEFIGMIQEIQQAAERLERNFVDSRQLKVCATCFDLSVSLLRVLEMTITLVPEIFLDWTRPTSEMLLRRLAQLLNQVLNRVTAERNLFDRVVTLRLPGLESVDHYPILVAVTGILVQLLVRGPASEREQATSVLLADPCFQLRSICYLLGQPEPPAPGTALPAPDRKRFSLQSYADYISADELAQVEQMLAHLTSASAQAAAASLPTSEEDLCPICYAHPISAVFQPCGHKSCKACINQHLMNNKDCFFCKTTIVSVEDWEKGANTSTTSSAA

target: FLAG-tagged Bag6 (UniProt P46379)

binding, binds:
CHIP (from UniProt Q9UNE7 1-303) (enzyme), HUWE1 (from UniProt Q7Z6Z7 1-4374) (enzyme), B1
